These are yes or no findings as the source states them, for the method shown. Binding can be weak; no strength is given. Tags and fused reporters may be left off the sequences shown. For part of these data: In cells and extracts the contact can be indirect.

Consider six substances from article PMC6585848.

The first assay has as its target T1, CELLULOSE SYNTHASE 3 fused to the C-terminal part of ubiquitin (Cub) and the URA3 reporter protein (split-ubiquitin bait) (Arabidopsis thaliana) (UniProt Q941L0).
T1 sequence: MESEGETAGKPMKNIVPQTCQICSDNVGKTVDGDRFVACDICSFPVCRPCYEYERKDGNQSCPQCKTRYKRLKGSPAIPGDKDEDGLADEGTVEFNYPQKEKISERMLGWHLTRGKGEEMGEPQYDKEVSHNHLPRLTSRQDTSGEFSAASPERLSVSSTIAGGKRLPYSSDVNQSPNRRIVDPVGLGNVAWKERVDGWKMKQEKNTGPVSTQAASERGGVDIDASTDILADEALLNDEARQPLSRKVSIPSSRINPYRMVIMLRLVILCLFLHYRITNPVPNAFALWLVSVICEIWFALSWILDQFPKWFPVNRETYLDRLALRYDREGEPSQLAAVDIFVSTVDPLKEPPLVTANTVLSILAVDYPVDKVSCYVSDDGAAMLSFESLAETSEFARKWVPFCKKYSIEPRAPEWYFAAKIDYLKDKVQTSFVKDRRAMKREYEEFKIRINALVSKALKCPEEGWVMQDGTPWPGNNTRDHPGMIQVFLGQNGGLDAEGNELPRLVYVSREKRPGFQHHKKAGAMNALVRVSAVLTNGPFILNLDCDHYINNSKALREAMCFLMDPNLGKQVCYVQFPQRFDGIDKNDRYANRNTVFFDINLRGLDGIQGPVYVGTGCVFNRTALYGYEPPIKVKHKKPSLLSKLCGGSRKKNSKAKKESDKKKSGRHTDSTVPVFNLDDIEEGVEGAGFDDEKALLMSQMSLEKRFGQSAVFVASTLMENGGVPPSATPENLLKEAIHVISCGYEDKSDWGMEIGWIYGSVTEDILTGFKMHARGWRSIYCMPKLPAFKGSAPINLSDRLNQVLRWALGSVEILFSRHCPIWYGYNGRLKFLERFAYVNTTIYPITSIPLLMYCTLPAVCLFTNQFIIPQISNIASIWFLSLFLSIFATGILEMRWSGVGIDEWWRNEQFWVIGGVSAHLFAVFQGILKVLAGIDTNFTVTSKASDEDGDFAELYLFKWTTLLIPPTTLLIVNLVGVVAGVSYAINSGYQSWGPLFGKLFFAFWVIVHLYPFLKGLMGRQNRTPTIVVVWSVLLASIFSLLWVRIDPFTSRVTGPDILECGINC
Kind of assay: two-hybrid; yeast split-ubiquitin two-hybrid in S. cerevisiae JD53; bait CESA3-Cub-URA3, preys fused to NubG; growth on SC-HT medium with 1 mg/ml 5-FOA; 80 colonies of each combination spotted, 30°C, 3 d.
Turning to “TRM26 fused to the C-terminus of NubG (split-ubiquitin prey)”, the binding result was “no binding”.
The same measure, in the same setting: the entry for “TONNEAU1 (TON1) recruiting motif 4 fused to the C-terminus of NubG (split-ubiquitin prey) (Arabidopsis thaliana)” is “binds”.
Still for that read-out and setting: the entry for “COMPANION OF CELLULOSE SYNTHASE 1 fused to the C-terminus of NubG (split-ubiquitin prey)” is “binds”.

A further assay concerns the target T2, YFP^N-CESA3 (the N-terminal half of YFP fused to the N-terminus of CESA3) (Arabidopsis thaliana) (UniProt Q941L0).
T2 sequence: T1 sequence
Put plainly: split reporter; BiFC with the halves of YFP, co-expression in epidermal cells of Nicotiana benthamiana (tobacco) leaves, YFP fluorescence by confocal microscopy.
In the case of “YFP^C-TRM4 (the C-terminal half of YFP fused to the N-terminus of TRM4) (Arabidopsis thaliana)”, the binding entry is recorded as “binds”.
The same measure, in the same setting: for YFP^C-TRM26 the value was “no binding”; for YFP^C-CC1, “binds”.
